The assay concerns the target T1, F-box and leucine-rich repeat protein 18 (FBXL18), 3xFlag-tagged (human) (UniProt Q96ME1).
T1 sequence: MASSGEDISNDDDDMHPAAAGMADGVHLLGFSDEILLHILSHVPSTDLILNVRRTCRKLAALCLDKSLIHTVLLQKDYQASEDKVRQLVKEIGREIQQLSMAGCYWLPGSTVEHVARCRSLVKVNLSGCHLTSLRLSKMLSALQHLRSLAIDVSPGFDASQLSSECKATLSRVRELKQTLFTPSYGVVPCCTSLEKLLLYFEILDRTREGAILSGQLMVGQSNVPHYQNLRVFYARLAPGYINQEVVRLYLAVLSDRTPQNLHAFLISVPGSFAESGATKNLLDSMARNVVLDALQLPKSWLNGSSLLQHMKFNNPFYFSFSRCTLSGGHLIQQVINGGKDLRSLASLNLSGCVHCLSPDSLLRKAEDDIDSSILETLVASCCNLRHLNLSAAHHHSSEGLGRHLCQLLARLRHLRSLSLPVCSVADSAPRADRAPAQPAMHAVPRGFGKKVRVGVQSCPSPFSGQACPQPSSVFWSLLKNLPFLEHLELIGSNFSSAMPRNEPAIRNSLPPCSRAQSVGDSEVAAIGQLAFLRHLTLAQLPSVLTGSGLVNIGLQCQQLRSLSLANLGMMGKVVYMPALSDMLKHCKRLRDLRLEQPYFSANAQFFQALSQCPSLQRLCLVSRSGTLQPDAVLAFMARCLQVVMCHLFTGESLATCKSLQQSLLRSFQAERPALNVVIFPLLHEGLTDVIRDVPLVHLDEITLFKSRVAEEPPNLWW
Kind of assay: affinity purification with mass spectrometry; Huh7 cells transfected with Flag-tagged FBXL18; immunoprecipitation with an anti-FBXL18 antibody (p-0026: anti-Flag-FBXL18 antibody); proteins analyzed by mass spectrometry.

Protein sequences, listed by entry. Tags and fused reporters are not part of them.
UniProt Q15149: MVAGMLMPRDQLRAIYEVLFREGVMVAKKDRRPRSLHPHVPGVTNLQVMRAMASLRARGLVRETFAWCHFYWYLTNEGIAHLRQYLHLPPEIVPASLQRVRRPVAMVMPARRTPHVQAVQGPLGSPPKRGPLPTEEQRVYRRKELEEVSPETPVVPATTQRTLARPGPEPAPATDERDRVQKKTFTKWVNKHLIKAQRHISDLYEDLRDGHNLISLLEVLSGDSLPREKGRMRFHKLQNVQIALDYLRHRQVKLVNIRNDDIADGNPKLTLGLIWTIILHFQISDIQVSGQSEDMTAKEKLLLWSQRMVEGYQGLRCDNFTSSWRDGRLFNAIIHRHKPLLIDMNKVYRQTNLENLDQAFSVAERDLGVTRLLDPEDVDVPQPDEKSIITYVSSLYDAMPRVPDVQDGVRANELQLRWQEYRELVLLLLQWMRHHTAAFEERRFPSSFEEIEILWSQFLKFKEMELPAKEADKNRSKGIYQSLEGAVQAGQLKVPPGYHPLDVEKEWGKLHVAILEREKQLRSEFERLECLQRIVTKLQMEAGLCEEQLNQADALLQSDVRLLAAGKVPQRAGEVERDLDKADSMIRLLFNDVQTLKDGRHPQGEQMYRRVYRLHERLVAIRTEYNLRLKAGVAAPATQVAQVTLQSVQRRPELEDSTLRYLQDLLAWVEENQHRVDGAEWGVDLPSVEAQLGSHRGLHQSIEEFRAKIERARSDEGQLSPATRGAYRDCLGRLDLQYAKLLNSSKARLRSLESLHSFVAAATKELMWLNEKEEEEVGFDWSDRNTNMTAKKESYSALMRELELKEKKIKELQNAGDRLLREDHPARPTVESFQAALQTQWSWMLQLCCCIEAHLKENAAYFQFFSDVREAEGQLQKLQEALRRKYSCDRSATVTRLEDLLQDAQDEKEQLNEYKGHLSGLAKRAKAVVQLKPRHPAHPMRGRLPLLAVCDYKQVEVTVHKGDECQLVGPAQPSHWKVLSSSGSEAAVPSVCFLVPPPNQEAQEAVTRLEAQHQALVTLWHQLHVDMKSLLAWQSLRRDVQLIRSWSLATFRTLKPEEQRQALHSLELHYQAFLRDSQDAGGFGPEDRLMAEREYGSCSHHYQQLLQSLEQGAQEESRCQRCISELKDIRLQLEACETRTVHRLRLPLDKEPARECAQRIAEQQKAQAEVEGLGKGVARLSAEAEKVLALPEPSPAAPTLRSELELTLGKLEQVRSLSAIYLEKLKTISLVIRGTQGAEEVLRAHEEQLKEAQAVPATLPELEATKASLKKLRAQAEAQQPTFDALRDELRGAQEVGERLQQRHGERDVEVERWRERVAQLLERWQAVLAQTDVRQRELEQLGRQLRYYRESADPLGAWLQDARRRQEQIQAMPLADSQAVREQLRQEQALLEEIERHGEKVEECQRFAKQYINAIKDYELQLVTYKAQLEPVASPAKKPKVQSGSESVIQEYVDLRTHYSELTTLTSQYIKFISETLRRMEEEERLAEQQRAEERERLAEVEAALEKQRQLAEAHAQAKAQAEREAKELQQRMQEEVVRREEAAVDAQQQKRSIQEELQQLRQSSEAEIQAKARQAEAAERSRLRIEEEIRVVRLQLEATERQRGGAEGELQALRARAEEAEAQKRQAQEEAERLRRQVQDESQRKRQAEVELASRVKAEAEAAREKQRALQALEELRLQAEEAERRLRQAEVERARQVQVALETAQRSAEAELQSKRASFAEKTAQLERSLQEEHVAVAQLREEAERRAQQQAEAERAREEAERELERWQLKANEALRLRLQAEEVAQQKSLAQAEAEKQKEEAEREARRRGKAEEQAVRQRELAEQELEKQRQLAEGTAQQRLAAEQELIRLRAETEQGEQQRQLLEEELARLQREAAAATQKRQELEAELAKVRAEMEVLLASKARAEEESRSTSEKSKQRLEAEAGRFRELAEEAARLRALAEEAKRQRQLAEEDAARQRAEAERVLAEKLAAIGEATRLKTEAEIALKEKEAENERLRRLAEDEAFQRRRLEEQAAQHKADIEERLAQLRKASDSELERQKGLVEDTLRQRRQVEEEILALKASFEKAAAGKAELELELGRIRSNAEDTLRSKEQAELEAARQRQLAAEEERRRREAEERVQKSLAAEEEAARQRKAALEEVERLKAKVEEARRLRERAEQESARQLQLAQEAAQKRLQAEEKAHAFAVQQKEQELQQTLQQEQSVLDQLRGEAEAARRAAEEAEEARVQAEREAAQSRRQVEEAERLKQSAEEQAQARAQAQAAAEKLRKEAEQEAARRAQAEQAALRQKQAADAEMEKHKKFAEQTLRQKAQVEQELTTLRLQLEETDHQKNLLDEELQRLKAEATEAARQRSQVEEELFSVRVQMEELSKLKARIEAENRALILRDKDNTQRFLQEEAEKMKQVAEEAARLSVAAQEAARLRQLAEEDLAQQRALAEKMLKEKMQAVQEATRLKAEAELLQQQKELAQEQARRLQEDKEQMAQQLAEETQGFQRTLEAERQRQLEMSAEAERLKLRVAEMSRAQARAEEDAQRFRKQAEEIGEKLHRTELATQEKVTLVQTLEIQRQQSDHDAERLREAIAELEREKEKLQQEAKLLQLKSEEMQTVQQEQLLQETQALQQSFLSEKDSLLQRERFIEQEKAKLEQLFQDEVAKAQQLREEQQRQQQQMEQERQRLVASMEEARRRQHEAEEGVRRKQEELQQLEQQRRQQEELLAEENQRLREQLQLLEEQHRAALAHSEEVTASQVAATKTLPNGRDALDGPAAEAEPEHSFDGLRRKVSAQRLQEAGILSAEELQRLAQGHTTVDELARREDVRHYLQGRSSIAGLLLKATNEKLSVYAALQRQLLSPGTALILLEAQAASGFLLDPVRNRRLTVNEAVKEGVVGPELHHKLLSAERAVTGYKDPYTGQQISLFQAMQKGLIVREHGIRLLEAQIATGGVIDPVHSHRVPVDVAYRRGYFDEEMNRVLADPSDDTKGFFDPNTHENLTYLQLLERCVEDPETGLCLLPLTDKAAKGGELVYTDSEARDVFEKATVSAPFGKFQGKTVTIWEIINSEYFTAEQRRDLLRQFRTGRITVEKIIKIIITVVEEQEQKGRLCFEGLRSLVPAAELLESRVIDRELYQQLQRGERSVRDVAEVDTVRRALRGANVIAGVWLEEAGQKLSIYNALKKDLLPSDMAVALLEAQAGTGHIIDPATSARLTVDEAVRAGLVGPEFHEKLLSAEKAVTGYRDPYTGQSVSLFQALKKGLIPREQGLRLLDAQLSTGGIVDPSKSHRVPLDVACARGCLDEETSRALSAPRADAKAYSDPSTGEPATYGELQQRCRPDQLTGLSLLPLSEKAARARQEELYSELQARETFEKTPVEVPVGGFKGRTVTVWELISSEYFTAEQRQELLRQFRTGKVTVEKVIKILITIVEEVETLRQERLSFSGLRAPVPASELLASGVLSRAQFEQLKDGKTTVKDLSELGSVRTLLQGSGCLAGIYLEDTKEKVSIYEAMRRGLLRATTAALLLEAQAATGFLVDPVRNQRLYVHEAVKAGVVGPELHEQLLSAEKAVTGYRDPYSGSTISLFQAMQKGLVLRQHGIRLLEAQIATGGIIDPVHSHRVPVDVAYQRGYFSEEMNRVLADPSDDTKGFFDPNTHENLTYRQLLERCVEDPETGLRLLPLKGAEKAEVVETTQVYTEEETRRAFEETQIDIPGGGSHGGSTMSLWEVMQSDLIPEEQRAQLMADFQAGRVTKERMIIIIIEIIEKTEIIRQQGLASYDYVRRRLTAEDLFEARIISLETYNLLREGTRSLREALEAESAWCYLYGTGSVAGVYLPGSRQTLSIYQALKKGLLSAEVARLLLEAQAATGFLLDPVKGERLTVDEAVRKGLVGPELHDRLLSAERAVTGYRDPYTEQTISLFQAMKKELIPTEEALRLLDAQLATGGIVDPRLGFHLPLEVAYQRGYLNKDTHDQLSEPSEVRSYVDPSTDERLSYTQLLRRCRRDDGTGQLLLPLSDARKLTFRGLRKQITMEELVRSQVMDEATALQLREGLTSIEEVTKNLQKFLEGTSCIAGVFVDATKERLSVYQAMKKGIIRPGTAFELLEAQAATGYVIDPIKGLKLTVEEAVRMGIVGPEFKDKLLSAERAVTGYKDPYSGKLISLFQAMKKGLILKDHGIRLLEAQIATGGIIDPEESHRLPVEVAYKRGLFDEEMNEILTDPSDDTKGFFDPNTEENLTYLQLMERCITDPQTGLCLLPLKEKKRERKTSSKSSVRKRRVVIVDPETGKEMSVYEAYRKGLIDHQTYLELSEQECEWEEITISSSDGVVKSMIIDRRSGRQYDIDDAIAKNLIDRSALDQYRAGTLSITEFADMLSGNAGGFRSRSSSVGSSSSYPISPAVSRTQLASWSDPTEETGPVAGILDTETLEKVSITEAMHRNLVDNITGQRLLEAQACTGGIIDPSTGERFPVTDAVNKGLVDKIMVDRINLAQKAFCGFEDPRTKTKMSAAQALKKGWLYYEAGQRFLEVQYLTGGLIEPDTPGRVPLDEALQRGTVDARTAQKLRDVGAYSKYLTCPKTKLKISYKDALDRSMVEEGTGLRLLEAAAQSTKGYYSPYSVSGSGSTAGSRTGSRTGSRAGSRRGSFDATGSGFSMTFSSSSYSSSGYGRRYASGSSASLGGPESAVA

Results are given in words; binding and its absence hold for the method and conditions named. Binding seen in cells or lysates may run through a third protein. Here binding means that the protein was enriched with, or labelled near, the bait; the list need not be complete. Tags and fused reporters may be left off the sequences shown.

Turning to PLEC (from UniProt Q15149 1-4684), the binding entry is on record as “binds”.

The values are drawn from PMC10309527.
